From article PMC5648194
Results are given in words; binding and its absence hold for the method and conditions named. In cells and extracts the contact can be indirect. Some entries that bind do so weakly or less than the wild type. Where a sequence is shown, tags or fusion partners need not be part of it. One block for each molecule: values may come before it.

By UniProt entry, the sequences of proteins in these tests, tags left out.
UniProt P14713: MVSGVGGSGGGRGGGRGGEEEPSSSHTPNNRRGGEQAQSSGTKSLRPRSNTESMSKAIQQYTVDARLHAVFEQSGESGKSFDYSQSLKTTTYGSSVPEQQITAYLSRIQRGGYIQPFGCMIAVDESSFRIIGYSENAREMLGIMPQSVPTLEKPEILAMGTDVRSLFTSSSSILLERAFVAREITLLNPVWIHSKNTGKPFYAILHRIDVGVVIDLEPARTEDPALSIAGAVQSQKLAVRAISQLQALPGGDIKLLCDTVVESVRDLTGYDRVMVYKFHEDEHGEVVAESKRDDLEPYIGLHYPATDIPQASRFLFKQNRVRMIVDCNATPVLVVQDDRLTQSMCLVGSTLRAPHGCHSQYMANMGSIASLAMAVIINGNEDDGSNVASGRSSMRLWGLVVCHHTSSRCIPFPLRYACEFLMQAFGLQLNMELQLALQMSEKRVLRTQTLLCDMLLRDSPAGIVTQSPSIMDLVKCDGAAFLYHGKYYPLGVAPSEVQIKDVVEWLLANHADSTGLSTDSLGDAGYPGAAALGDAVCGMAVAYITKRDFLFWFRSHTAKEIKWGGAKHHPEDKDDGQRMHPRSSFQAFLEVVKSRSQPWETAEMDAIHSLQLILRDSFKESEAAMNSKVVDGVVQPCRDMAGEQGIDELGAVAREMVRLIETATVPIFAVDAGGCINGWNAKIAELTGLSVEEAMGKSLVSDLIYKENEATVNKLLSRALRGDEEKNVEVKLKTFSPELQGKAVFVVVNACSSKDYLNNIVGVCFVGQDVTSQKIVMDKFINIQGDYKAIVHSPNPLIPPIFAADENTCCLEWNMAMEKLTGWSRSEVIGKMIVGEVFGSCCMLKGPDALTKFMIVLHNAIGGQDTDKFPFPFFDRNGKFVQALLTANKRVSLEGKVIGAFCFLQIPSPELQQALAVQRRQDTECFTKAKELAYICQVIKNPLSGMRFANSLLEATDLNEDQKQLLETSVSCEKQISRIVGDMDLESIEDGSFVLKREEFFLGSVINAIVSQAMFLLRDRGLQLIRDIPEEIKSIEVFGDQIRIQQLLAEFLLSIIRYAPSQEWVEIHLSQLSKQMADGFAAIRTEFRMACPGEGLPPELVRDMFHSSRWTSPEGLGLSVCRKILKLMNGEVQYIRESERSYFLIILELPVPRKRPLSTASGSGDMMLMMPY

Legend:
[1] = molecular target: T1, phyA-myc6 (Arabidopsis phytochrome A with six consecutive c-Myc epitopes, expressed from the PHYA promoter) (Arabidopsis (ecotype Col cDNA)) (UniProt P14712); assay: co-IP; anti-myc 9E10 and protein A-agarose on seedling extracts in IP buffer (50 mM Tris pH 8.0, 150 mM NaCl, 0.1% IGEPAL CA-630), on ice; blots probed with anti-phyA, -phyB, -phyC, -phyD and -phyE monoclonals; seedlings dark-grown (Fig 5B) or grown 4 days in the dark followed by 24 h continuous FR (S4 Fig)
T1 sequence: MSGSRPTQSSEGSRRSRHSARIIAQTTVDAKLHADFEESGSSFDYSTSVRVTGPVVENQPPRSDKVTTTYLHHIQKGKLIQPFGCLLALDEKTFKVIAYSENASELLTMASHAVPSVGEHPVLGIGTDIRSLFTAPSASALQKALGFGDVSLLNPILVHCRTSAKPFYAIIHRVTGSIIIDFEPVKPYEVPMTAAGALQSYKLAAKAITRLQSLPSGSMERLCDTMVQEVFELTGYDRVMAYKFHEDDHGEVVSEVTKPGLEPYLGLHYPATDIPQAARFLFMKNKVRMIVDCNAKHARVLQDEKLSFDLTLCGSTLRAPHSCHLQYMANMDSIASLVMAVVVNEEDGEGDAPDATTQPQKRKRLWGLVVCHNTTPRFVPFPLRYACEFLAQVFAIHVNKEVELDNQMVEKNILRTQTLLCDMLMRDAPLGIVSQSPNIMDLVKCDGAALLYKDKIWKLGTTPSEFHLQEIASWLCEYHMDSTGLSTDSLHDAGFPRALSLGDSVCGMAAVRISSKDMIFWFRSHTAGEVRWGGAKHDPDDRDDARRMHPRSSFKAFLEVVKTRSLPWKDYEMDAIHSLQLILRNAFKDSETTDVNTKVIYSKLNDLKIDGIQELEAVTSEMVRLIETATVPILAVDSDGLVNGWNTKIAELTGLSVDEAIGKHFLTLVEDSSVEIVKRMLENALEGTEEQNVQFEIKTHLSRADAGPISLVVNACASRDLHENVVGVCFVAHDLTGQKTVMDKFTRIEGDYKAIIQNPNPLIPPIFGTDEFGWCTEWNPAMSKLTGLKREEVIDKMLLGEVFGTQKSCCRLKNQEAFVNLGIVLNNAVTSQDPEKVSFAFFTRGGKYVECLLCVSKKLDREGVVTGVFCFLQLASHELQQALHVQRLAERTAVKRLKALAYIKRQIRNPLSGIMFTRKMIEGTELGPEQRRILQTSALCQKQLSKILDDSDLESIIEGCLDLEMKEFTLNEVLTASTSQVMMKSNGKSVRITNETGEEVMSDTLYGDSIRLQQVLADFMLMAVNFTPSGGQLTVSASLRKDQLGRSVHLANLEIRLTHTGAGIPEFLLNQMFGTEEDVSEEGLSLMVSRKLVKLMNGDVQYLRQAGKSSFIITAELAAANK

[2] = molecular target: T2, phyA-myc1 (Arabidopsis phytochrome A with a single c-Myc epitope, expressed from the PHYA promoter) (Arabidopsis (ecotype Col cDNA)) (UniProt P14712); assay: as above
T2 sequence: T1 sequence

Molecule: endogenous phytochrome B (phyB) (from UniProt P14713 1-1172) (receptor)
- binding [1]: no binding
- binding [2]: no binding

B3: endogenous phytochrome A (phyA) (receptor, UniProt P14712 1-1122)
chain: T1 sequence
- binding [1]: binds

Other lines, results leading:

- binding [1]: no binding
- binding [2]: no binding
B1: endogenous phytochrome D (phyD) (receptor, UniProt P42497 1-1164)
chain: MVSGGGSKTSGGEAASSGHRRSRHTSAAEQAQSSANKALRSQNQQPQNHGGGTESTNKAIQQYTVDARLHAVFEQSGESGKSFDYSQSLKTAPYDSSVPEQQITAYLSRIQRGGYTQPFGCLIAVEESTFTIIGYSENAREMLGLMSQSVPSIEDKSEVLTIGTDLRSLFKSSSYLLLERAFVAREITLLNPIWIHSNNTGKPFYAILHRVDVGILIDLEPARTEDPALSIAGAVQSQKLAVRAISHLQSLPSGDIKLLCDTVVESVRDLTGYDRVMVYKFHEDEHGEVVAESKRNDLEPYIGLHYPATDIPQASRFLFKQNRVRMIVDCYASPVRVVQDDRLTQFICLVGSTLRAPHGCHAQYMTNMGSIASLAMAVIINGNEEDGNGVNTGGRNSMRLWGLVVCHHTSARCIPFPLRYACEFLMQAFGLQLNMELQLALQVSEKRVLRMQTLLCDMLLRDSPAGIVTQRPSIMDLVKCNGAAFLYQGKYYPLGVTPTDSQINDIVEWLVANHSDSTGLSTDSLGDAGYPRAAALGDAVCGMAVACITKRDFLFWFRSHTEKEIKWGGAKHHPEDKDDGQRMNPRSSFQTFLEVVKSRCQPWETAEMDAIHSLQLILRDSFKESEAMDSKAAAAGAVQPHGDDMVQQGMQEIGAVAREMVRLIETATVPIFAVDIDGCINGWNAKIAELTGLSVEDAMGKSLVRELIYKEYKETVDRLLSCALKGDEGKNVEVKLKTFGSELQGKAMFVVVNACSSKDYLNNIVGVCFVGQDVTGHKIVMDKFINIQGDYKAIIHSPNPLIPPIFAADENTCCLEWNTAMEKLTGWPRSEVIGKLLVREVFGSYCRLKGPDALTKFMIVLHNAIGGQDTDKFPFPFFDRKGEFIQALLTLNKRVSIDGKIIGAFCFLQIPSPELQQALEVQRRQESEYFSRRKELAYIFQVIKNPLSGLRFTNSLLEDMDLNEDQKQLLETSVSCEKQISKIVGDMDVKSIDDGSFLLERTEFFIGNVTNAVVSQVMLVVRERNLQLIRNIPTEVKSMAVYGDQIRLQQVLAEFLLSIVRYAPMEGSVELHLCPTLNQMADGFSAVRLEFRMACAGEGVPPEKVQDMFHSSRWTSPEGLGLSVCRKILKLMNGGVQYIREFERSYFLIVIELPVPLMMMMPSS

- binding [1]: no binding
- binding [2]: no binding
B2: endogenous phytochrome E (phyE) (receptor, UniProt P42498 1-1112)
chain: MGFESSSSAASNMKPQPQKSNTAQYSVDAALFADFAQSIYTGKSFNYSKSVISPPNHVPDEHITAYLSNIQRGGLVQPFGCLIAVEEPSFRILGLSDNSSDFLGLLSLPSTSHSGEFDKVKGLIGIDARTLFTPSSGASLSKAASFTEISLLNPVLVHSRTTQKPFYAILHRIDAGIVMDLEPAKSGDPALTLAGAVQSQKLAVRAISRLQSLPGGDIGALCDTVVEDVQRLTGYDRVMVYQFHEDDHGEVVSEIRRSDLEPYLGLHYPATDIPQAARFLFKQNRVRMICDCNATPVKVVQSEELKRPLCLVNSTLRAPHGCHTQYMANMGSVASLALAIVVKGKDSSKLWGLVVGHHCSPRYVPFPLRYACEFLMQAFGLQLQMELQLASQLAEKKAMRTQTLLCDMLLRDTVSAIVTQSPGIMDLVKCDGAALYYKGKCWLVGVTPNESQVKDLVNWLVENHGDDSTGLTTDSLVDAGYPGAISLGDAVCGVAAAGFSSKDYLLWFRSNTASAIKWGGAKHHPKDKDDAGRMHPRSSFTAFLEVAKSRSLPWEISEIDAIHSLRLIMRESFTSSRPVLSGNGVARDANELTSFVCEMVRVIETATAPIFGVDSSGCINGWNKKTAEMTGLLASEAMGKSLADEIVQEESRAALESLLCKALQGEEEKSVMLKLRKFGQNNHPDYSSDVCVLVNSCTSRDYTENIIGVCFVGQDITSEKAITDRFIRLQGDYKTIVQSLNPLIPPIFASDENACCSEWNAAMEKLTGWSKHEVIGKMLPGEVFGVFCKVKCQDSLTKFLISLYQGIAGDNVPESSLVEFFNKEGKYIEASLTANKSTNIEGKVIRCFFFLQIINKESGLSCPELKESAQSLNELTYVRQEIKNPLNGIRFAHKLLESSEISASQRQFLETSDACEKQITTIIESTDLKSIEEGKLQLETEEFRLENILDTIISQVMIILRERNSQLRVEVAEEIKTLPLNGDRVKLQLILADLLRNIVNHAPFPNSWVGISISPGQELSRDNGRYIHLQFRMIHPGKGLPSEMLSDMFETRDGWVTPDGLGLKLSRKLLEQMNGRVSYVREDERCFFQVDLQVKTMLGVESRGTEGSSSIK

- binding [1]: no binding
- binding [2]: no binding
B4: endogenous phytochrome C (phyC) (receptor, UniProt P14714 1-1111)
chain: MSSNTSRSCSTRSRQNSRVSSQVLVDAKLHGNFEESERLFDYSASINLNMPSSSCEIPSSAVSTYLQKIQRGMLIQPFGCLIVVDEKNLKVIAFSENTQEMLGLIPHTVPSMEQREALTIGTDVKSLFLSPGCSALEKAVDFGEISILNPITLHCRSSSKPFYAILHRIEEGLVIDLEPVSPDEVPVTAAGALRSYKLAAKSISRLQALPSGNMLLLCDALVKEVSELTGYDRVMVYKFHEDGHGEVIAECCREDMEPYLGLHYSATDIPQASRFLFMRNKVRMICDCSAVPVKVVQDKSLSQPISLSGSTLRAPHGCHAQYMSNMGSVASLVMSVTINGSDSDEMNRDLQTGRHLWGLVVCHHASPRFVPFPLRYACEFLTQVFGVQINKEAESAVLLKEKRILQTQSVLCDMLFRNAPIGIVTQSPNIMDLVKCDGAALYYRDNLWSLGVTPTETQIRDLIDWVLKSHGGNTGFTTESLMESGYPDASVLGESICGMAAVYISEKDFLFWFRSSTAKQIKWGGARHDPNDRDGKRMHPRSSFKAFMEIVRWKSVPWDDMEMDAINSLQLIIKGSLQEEHSKTVVDVPLVDNRVQKVDELCVIVNEMVRLIDTAAVPIFAVDASGVINGWNSKAAEVTGLAVEQAIGKPVSDLVEDDSVETVKNMLALALEGSEERGAEIRIRAFGPKRKSSPVELVVNTCCSRDMTNNVLGVCFIGQDVTGQKTLTENYSRVKGDYARIMWSPSTLIPPIFITNENGVCSEWNNAMQKLSGIKREEVVNKILLGEVFTTDDYGCCLKDHDTLTKLRIGFNAVISGQKNIEKLLFGFYHRDGSFIEALLSANKRTDIEGKVTGVLCFLQVPSPELQYALQVQQISEHAIACALNKLAYLRHEVKDPEKAISFLQDLLHSSGLSEDQKRLLRTSVLCREQLAKVISDSDIEGIEEGYVELDCSEFGLQESLEAVVKQVMELSIERKVQISCDYPQEVSSMRLYGDNLRLQQILSETLLSSIRFTPALRGLCVSFKVIARIEAIGKRMKRVELEFRIIHPAPGLPEDLVREMFQPLRKGTSREGLGLHITQKLVKLMERGTLRYLRESEMSAFVILTEFPLI
